Results taken from patent publication US10808007B2, “Desacetoxytubulysin H and analogs thereof” (WILLIAM MARSH RICE UNIVERSITY, priority 2015, dated 2020).
Some results were stated once for a whole list of compounds, not compound by compound.

Tested on: NCI-60 human cancer cell line panel
Experiment: NCI-60 one-dose test
Type: cell-based
Details: one-dose test (10 μM), NCI-60 panel
Protocol: A number of the synthesized compounds (i.e. Tb1-Tb23) were evaluated for their activity against a variety of cancer cell lines, namely the NCI-60 human cancer cell line panel representing leukemia, melanoma, lung, colon, brain, ovary, breast, prostate and kidney types of cancer through the In Vitro Cell Line Screening Project (IVCLSP) of the National Cancer Institute (NCI), and a summary of the results is shown in Table 1. […] As there was interest in the activity in certain other cell lines, these and the remaining compounds (Tb1-Tb41, PTb-D42 and PTb-D43) were subjected to further testing against MES SA (uterine sarcoma cells), MES SA DX (multidrug resistant uterine sarcoma cells), and HEK 293T (human embryonic kidney cells). […] Tubulysins are known to be substrates for Pgp pumps (Xiangming, et al., 2013; Kaur, et al., 2006; Szakacs, et al., 2006) as supported by the observed low activities of all tubulysins tested except Tb28, Tb32 and Tb33.

Structure (SMILES) | outcome of the one-dose test
CC[C@@H](C)[C@H](NC(=O)[C@H]1CCCCN1C)C(=O)N(C)[C@H](C(=O)NC12C3C4C1C1C2C3C41C(=O)N[C@@H](Cc1ccccc1)C[C@H](C)C(=O)OC)C(C)C (stereo partly drawn) [Tb17, Methyl (2S,4R)-4-(4-((S)-2-((2S,3S)—N,3-dimethyl-2-((R)-1-methylpiperidine-2-carboxamido)penta-namido)-3-methylbutanamido)cubane-1-carboxamido)-2-methyl-5-phenylpentanoate] | failed to pass the one-dose test
CC[C@H](C)[C@H](NC(=O)C12CC(NC)(C1)C2)C(=O)N(C)[C@H](C[C@@H](OC(C)=O)c1nc(C(=O)N[C@@H](Cc2ccccc2)C[C@H](C)C(=O)OC)cs1)C(C)C [Tb8, Methyl(2S,4R)-4-(2-((1R,3R)-1-acetoxy-3-((2S,3S)—N,3-dimethyl-2-(3-(methylamino)-bicyclo[1.1.1]pentane-1-carboxamido)pentanamido)-4-methylpentyl)thiazole-4-carboxamido)-2-methyl, 5-phenyl-pentanoate-phenylpentanoate] | advanced to further testing at lower concentrations
COC(=O)[C@@H](C)C[C@H](Cc1ccccc1)NC(=O)c1csc([C@@H](C[C@H](C(C)C)N(C)C(=O)[C@@H](NC(=O)C23CC(NC(C)=O)(C2)C3)C2CC2)OC(C)=O)n1 [Tb22, Methyl (2S,4R)-4-(2-((1R,3R)-3-((S)-2-(3-acetamidobicyclo[1.1.1]pentane-1-carboxamido)-2-cyclopropyl-N-methylacetamido)-1-acetoxy-4-methylpentyl)thiazole-4-carboxamido)-2-methyl-5-phenylpentanoate] | failed to pass the one-dose test
CC[C@H](C)[C@H](NC(=O)C12CC(NC(C)=O)(C1)C2)C(=O)N(C)[C@H](C[C@@H](OC(C)=O)c1nc(C(=O)N[C@@H](Cc2ccccc2)C[C@H](C)C(=O)OC)cs1)C(C)C [Tb7, Methyl (2S,4R)-4-(2-((1R,3R)-3-((2S,3S)-2-(3-acetamidobicyclo[1.1.1]pentane-1-carboxamido)-N,3-dimethylpentanamido)-1-acetoxy-4-methylpentyl)thiazole-4-carboxamido)-2-methyl-5-phenyl-pentanoate] | advanced to further testing at lower concentrations
CC[C@H](C)[C@H](NC(=O)[C@H]1CCCCN1C)C(=O)N(C)[C@H](C[C@@H](OC(C)=O)c1nc(C(=O)N[C@@H](Cc2ccccc2)C[C@H](C)C(=O)O)cs1)C(C)C [Tb1, N^14-desacetoxytubulysin H] | advanced to further testing at lower concentrations
